Measured values reported in paper PMC10838158.
No constants are given. Whether binding was seen depends on the method and setting. Binding seen in cells or lysates may run through a third protein. Some entries that bind do so weakly or less than the wild type.

Chains of the proteins cited; added tags and fusions are not shown. Residues count along the entry.
UniProt Q9LKR3, residues 28-669: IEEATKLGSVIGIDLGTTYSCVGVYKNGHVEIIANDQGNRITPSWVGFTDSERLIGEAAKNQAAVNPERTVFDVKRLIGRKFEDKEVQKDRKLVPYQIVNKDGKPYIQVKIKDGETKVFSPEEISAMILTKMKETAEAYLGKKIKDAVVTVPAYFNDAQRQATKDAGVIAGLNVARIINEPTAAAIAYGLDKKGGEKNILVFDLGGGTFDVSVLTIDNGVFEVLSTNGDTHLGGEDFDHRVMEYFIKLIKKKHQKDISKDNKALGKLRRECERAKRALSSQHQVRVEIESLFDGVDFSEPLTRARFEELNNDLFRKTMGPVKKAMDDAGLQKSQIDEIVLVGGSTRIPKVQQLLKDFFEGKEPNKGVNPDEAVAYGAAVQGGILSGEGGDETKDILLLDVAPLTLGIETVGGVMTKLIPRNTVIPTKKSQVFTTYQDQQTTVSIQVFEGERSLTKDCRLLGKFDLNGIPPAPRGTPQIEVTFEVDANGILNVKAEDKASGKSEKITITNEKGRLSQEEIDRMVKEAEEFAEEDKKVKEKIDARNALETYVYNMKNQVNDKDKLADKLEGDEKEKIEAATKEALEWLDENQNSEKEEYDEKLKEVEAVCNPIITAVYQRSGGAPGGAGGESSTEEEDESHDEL

Target: T1, AtERdj2A–4M8H (Arabidopsis thaliana) (UniProt Q0WT48)
T1 sequence: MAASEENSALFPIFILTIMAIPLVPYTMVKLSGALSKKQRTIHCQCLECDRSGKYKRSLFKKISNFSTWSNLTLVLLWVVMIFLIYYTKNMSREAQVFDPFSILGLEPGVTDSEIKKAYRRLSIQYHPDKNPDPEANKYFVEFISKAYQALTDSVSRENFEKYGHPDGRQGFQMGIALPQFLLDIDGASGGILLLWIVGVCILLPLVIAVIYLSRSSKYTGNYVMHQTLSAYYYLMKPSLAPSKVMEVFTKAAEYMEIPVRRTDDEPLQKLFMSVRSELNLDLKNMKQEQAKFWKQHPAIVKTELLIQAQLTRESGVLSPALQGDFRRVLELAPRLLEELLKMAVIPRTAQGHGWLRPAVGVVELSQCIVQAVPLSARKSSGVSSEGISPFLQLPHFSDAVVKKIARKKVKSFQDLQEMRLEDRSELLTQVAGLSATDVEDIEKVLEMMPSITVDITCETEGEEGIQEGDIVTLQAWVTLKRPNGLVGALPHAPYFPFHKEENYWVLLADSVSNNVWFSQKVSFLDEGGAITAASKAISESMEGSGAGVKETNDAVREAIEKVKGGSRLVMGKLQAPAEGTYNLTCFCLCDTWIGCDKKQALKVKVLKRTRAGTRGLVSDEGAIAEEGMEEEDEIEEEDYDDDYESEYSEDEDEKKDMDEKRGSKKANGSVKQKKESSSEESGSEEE
Assay: co-IP; in vivo: 4M8H-tagged AtERdj constructs co-expressed with AtBiP1–GFP, CMV MP–GST or GFP in N. benthamiana leaves; total protein (100 µg) with c-Myc affinity beads 4 h at 4 °C; blots with anti-GFP or anti-GST

binding: binds
Substance: AtBiP1–GFP (co-expressed in N. benthamiana) (from UniProt Q9LKR3 28-669)
